For the test, the target named is T1, Vps26 (S. pombe) (UniProt Q10243).
T1 sequence: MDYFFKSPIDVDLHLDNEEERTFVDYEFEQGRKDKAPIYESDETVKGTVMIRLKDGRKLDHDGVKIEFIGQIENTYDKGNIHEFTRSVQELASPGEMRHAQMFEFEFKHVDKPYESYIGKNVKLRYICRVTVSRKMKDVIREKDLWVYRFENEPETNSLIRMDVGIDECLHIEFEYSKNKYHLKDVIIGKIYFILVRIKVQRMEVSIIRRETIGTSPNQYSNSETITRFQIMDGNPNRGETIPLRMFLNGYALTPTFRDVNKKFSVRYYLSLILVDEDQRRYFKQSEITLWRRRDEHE
Briefly: two-hybrid; pGADT7 and pGBKT7 plasmids in S. cerevisiae AH109; growth on YNB without histidine, 30°C, four days.

Results are given in words; binding and its absence hold for the method and conditions named.

With “Stx8* (Stx8 lacking the TM helix) (S. pombe) (domain or fragment)”, the binding result is recorded as “no binding”.

The values above are taken from publication PMC8041195.
